Some of the results follow.
What was measured:
Experiment in all cases: log2 fold change, soluble protein after heating vs DMSO (PISA); higher = thermal stabilisation; K562 cells, 10 uM, 30 min; active = over 0.2 and 3.5 SD of the protein, either way, in both replicates (recomputed)
[1] = compound: NC(=O)Nc1cc(-c2cccc(F)c2)sc1C(=O)N[C@H]1CCCNC1
Summary of the method: (§1)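 K562 cells (2×10^6 cells/mL) were treated with 10 μM compound for 30 min, and aliquots were heated for 3 min over 48°C-58°C. Pooled aliquots were extracted in PBS with 0.5% NP-40 at 4°C, and the supernatant after 21,000xg for 90 min was measured by TMTpro 16plex LC-MS/MS with channel sums equalised. Reported thermal stability, relative to control samples and from duplicates, is a log2 fold change.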

By UniProt entry, the sequences of proteins in these tests, tags left out. Where a name states a change or a piece, a line headed by the entry shows the natural chain unless it says otherwise.
UniProt L0R819, whole entry, looked up: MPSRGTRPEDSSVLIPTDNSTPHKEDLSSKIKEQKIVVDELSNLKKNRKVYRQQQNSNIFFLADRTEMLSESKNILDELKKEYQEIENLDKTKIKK
UniProt Q5T9A4: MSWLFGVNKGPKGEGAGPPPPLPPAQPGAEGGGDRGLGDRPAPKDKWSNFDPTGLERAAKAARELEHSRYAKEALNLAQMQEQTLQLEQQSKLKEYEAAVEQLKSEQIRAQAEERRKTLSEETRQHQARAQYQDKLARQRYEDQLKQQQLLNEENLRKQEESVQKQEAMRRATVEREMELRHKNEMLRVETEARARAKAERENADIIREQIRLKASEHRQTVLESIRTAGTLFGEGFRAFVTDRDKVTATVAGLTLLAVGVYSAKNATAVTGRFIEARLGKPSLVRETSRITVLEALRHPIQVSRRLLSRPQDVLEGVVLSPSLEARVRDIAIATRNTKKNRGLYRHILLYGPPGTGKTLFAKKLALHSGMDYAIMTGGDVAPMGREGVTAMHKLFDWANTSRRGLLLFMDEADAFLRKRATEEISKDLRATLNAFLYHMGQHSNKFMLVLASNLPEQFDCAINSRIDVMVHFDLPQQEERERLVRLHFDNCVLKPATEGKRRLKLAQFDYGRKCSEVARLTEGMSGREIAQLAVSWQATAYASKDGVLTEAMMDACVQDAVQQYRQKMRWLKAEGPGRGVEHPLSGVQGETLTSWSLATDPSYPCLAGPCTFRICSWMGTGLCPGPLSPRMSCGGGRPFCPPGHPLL
UniProt Q9UBL3, whole entry, looked up: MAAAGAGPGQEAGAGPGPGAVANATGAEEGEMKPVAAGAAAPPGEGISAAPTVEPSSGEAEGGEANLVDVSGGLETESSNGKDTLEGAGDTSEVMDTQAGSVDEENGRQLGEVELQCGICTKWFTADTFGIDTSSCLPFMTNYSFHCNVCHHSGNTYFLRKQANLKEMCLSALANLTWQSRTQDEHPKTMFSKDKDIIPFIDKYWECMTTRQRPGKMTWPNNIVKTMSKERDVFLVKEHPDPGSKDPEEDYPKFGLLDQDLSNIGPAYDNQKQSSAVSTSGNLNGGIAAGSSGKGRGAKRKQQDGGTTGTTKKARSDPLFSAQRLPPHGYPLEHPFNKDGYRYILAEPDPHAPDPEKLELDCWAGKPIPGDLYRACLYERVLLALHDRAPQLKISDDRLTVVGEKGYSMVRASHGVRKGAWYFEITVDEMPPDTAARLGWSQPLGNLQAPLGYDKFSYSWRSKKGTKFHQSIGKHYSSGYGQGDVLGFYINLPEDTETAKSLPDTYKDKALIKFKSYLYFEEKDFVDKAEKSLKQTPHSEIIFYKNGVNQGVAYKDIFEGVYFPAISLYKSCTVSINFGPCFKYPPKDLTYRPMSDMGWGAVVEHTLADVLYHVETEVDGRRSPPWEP
UniProt P23634: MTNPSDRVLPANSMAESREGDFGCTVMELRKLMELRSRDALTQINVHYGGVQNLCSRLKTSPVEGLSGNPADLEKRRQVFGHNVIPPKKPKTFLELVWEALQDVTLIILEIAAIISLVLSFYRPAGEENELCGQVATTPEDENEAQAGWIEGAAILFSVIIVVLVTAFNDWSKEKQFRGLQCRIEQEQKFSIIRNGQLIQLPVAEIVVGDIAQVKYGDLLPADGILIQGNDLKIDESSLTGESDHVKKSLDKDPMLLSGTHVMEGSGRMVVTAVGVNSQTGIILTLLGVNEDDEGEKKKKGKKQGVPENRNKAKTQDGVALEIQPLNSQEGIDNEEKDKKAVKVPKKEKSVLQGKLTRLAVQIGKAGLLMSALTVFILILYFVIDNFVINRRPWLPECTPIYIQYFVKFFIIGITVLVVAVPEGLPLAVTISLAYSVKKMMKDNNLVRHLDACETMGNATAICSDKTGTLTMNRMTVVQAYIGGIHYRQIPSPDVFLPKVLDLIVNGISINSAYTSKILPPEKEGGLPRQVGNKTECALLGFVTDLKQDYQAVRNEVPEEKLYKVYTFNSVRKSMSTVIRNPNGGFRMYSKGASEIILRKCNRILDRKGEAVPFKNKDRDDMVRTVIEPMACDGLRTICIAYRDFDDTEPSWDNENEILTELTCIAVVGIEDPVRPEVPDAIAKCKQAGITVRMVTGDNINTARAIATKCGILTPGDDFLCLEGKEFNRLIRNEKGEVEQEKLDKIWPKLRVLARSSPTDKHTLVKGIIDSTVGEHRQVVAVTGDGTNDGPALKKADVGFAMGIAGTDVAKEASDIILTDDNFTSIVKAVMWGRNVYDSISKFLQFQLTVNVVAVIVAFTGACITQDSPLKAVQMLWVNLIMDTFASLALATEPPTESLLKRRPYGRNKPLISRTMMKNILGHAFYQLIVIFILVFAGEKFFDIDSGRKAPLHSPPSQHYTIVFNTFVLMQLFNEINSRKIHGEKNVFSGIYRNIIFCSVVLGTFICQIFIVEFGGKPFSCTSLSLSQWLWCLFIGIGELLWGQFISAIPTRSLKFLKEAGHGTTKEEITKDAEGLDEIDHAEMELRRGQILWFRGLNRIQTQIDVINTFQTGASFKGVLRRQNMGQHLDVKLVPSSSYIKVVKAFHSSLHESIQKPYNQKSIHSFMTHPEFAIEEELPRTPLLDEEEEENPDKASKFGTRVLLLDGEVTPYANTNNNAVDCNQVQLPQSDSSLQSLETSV
UniProt P32121, whole entry, looked up: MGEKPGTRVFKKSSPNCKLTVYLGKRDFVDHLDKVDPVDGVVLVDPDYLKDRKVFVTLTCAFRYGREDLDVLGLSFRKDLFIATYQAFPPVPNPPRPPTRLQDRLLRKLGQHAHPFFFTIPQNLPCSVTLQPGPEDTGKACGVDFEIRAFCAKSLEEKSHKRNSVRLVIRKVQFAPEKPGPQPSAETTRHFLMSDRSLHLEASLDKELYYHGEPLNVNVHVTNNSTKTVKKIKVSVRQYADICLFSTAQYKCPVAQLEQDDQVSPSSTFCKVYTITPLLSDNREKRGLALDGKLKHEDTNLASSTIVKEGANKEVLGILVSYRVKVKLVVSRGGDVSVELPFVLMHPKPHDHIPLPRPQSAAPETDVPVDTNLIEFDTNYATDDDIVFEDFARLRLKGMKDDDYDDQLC
UniProt Q9NVT9: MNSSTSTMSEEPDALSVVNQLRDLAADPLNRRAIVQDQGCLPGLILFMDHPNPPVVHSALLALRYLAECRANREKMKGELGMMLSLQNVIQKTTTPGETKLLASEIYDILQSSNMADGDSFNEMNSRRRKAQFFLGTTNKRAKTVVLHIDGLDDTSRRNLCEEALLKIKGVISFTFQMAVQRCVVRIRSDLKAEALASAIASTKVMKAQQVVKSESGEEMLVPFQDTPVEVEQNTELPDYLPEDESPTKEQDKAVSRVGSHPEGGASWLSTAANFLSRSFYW
UniProt P21283, whole entry, looked up: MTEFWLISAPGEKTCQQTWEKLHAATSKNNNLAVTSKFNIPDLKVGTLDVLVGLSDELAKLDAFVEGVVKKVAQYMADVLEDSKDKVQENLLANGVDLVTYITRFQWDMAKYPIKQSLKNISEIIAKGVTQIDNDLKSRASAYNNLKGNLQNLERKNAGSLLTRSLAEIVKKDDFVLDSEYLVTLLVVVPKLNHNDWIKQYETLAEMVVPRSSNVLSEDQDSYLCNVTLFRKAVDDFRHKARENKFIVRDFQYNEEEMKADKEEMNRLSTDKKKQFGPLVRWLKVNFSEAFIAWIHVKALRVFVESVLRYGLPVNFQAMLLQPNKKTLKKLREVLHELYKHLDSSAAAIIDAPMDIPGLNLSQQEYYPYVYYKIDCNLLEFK
UniProt O95260: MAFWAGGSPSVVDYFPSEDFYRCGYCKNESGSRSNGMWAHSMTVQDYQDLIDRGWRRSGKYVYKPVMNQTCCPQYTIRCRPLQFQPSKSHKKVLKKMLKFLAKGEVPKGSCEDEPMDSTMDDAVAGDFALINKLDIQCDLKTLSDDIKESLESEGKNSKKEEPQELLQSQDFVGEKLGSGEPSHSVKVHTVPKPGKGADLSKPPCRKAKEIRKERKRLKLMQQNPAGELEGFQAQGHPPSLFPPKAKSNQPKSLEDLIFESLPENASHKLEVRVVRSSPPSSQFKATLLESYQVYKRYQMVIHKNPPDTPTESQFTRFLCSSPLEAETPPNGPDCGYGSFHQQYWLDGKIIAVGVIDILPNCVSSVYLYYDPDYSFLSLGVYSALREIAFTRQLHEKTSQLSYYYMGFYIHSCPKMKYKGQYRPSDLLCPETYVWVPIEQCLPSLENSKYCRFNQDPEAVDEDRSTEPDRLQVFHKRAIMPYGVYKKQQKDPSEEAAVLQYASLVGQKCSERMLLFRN
UniProt P36404: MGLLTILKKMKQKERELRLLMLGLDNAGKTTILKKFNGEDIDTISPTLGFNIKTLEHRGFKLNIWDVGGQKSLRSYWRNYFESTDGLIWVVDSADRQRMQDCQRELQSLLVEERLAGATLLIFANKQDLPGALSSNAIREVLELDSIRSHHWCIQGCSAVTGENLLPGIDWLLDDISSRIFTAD
UniProt Q9H1Y0: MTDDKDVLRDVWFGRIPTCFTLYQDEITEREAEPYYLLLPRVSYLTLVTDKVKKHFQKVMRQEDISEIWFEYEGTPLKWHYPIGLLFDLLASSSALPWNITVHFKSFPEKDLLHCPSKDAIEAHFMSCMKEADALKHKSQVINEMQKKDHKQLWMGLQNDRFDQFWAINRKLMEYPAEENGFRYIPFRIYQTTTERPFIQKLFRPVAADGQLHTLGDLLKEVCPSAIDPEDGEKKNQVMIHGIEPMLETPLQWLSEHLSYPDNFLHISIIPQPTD
UniProt P40616: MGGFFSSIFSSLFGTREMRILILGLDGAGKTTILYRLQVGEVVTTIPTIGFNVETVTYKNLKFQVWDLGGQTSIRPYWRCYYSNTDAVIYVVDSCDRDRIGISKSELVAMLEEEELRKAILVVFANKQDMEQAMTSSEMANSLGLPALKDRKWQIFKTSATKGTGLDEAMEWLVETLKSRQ
UniProt Q9BZE9, whole entry, looked up: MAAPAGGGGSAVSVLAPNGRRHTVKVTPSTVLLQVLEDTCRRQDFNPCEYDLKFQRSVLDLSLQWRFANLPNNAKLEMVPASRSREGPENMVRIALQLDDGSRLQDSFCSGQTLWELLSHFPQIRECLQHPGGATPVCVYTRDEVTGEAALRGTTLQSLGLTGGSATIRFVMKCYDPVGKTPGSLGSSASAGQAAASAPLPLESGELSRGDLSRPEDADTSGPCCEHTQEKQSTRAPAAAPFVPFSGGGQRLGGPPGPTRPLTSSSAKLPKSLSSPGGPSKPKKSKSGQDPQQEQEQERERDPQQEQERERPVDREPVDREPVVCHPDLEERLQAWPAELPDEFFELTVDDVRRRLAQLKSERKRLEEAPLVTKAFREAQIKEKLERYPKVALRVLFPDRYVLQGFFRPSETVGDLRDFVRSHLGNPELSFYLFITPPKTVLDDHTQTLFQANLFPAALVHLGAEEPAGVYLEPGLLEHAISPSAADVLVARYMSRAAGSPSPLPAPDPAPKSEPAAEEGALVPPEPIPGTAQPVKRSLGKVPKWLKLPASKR
UniProt Q3SXY8: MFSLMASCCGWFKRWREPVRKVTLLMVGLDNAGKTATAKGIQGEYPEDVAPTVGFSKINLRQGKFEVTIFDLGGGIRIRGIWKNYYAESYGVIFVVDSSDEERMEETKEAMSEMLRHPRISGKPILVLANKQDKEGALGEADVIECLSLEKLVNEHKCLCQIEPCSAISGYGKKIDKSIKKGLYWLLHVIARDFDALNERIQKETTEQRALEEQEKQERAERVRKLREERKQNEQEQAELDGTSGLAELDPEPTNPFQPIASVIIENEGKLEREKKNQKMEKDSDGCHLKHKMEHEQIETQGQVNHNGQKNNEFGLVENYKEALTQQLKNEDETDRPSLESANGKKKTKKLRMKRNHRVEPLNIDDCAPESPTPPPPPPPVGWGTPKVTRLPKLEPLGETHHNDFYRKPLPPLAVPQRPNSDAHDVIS
UniProt P21281, whole entry, looked up: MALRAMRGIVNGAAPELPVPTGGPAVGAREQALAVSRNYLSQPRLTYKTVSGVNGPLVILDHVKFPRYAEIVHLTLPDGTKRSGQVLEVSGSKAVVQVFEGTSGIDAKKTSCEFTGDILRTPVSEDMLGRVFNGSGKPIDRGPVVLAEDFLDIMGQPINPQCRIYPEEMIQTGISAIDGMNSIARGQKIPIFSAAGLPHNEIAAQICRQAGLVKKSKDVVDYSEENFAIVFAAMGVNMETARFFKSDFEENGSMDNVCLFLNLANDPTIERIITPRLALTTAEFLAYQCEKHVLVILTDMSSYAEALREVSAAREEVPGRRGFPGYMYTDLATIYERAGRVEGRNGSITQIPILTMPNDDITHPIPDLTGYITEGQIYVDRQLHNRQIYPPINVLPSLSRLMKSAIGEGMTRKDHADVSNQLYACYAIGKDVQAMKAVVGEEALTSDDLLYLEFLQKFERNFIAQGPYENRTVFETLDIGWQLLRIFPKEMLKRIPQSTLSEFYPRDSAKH
UniProt P40617: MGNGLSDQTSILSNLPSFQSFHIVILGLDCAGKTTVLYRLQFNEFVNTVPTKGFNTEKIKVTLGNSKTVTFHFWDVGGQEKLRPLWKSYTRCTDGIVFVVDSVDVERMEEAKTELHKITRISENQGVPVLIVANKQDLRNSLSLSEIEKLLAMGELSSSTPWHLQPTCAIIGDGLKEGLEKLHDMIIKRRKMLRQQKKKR

[2] = compound: NC(=O)c1cnc(N[C@@H]2CCCC[C@@H]2N)nc1Nc1cccc(-n2nccn2)c1
Summary of the method: as §1

[3] = compound: NC1(c2ccc(-c3nc4ccn5c(=O)[nH]nc5c4cc3-c3ccccc3)cc2)CCC1
Summary of the method: as §1

[4] = compound: NCC(=O)Nc1ccc(-n2nc(C(F)(F)F)cc2-c2ccc3c(ccc4ccccc43)c2)cc1
Summary of the method: as §1

entinostat = compound: Nc1ccccc1NC(=O)c1ccc(CNC(=O)OCc2cccnc2)cc1 [entinostat]
Summary of the method: as §1

vorinostat = compound: O=C(CCCCCCC(=O)Nc1ccccc1)NO [vorinostat]
Summary of the method: as §1

citarinostat = compound: O=C(CCCCCCNC(=O)c1cnc(N(c2ccccc2)c2ccccc2Cl)nc1)NO [citarinostat]
Summary of the method: as §1

silmitasertib = compound: O=C(O)c1ccc2c(c1)nc(Nc1cccc(Cl)c1)c1ccncc12 [silmitasertib]
Summary of the method: as §1

[5] = compound: O=C1NC(=O)C(c2cnc3ccccn23)=C1c1cn2c3c(cc(F)cc13)CN(C(=O)N1CCCCC1)CC2
Summary of the method: as §1

[6] = compound: c1cc(OCCN2CCCCC2)cc(-c2n[nH]c3ccc(-c4nnc[nH]4)cc23)c1
Summary of the method: as §1

Measured: log2 fold change

ASDURF (UniProt L0R819)
inactive: [1] 0.004 | [2] -0.006 | [3] 0.033 | [4] 0.047 | entinostat -0.047 | vorinostat -0.059 | citarinostat 0.009 | silmitasertib 0 | [5] 0.087 | [6] -0.14

ATP1A1 (UniProt P05023)
inactive: [1] -0.055 | [2] 0.093 | [3] 0.116 | [4] 0.07 | entinostat -0.04 | vorinostat 0.03 | citarinostat -0.003 | silmitasertib -0.062 | [5] -0.077 | [6] 0.003

ATAD3B (UniProt Q5T9A4)
inactive: [1] 0.017 | [2] -0.029 | [3] -0.089 | [4] -0.088 | entinostat 0.013 | vorinostat 0.108 | citarinostat -0.016 | silmitasertib 0.005 | [5] 0.248 | [6] -0.104

ATP6V1D (UniProt Q9Y5K8)
inactive: [1] 0.028 | [2] -0.012 | [3] -0.056 | [4] 0.027 | entinostat -0.034 | vorinostat 0.018 | citarinostat 0.024 | silmitasertib -0.026 | [5] 0.044 | [6] -0.009

ARNT (UniProt P27540)
inactive: [1] -0.059 | [2] 0.001 | [3] -0.058 | [4] 0.105 | entinostat -0.056 | vorinostat -0.027 | citarinostat 0.054 | silmitasertib 0.024 | [5] -0.291 | [6] 0.002

Fetched one by one from the entries so far (2):
ATP6V1D (UniProt Q9Y5K8)
inactive: [1] 0.028 | [2] -0.012 | [3] -0.056 | [4] 0.027 | entinostat -0.034 | vorinostat 0.018 | citarinostat 0.024 | silmitasertib -0.026 | [5] 0.044 | [6] -0.009

ARNT (UniProt P27540)
inactive: [1] -0.059 | [2] 0.001 | [3] -0.058 | [4] 0.105 | entinostat -0.056 | vorinostat -0.027 | citarinostat 0.054 | silmitasertib 0.024 | [5] -0.291 | [6] 0.002

The list goes on:

ASPH (UniProt Q12797)
inactive: [1] 0.032 | [2] 0 | [3] -0.012 | [4] 0.017 | entinostat -0.041 | vorinostat 0.002 | citarinostat -0.019 | silmitasertib 0.021 | [5] 0.019 | [6] -0.036

ATP12A isoform 2 (UniProt P54707)
inactive: [1] -0.115 | [2] 0.049 | [3] 0.075 | [4] 0.003 | entinostat -0.072 | vorinostat -0.035 | citarinostat -0.033 | silmitasertib -0.033 | [5] -0.032 | [6] -0.037

ATAD3A isoform 2 (UniProt Q9NVI7)
inactive: [1] 0.011 | [2] -0.088 | [3] -0.128 | [4] -0.088 | entinostat 0.053 | vorinostat 0.123 | citarinostat 0.076 | silmitasertib 0.051 | [5] 0.12 | [6] -0.127

ASH2L (UniProt Q9UBL3)
inactive: [1] -0.025 | [2] -0.075 | [3] 0.002 | [4] -0.074 | entinostat 0.025 | vorinostat 0.013 | citarinostat 0.044 | silmitasertib 0.08 | [5] -0.064 | [6] -0.05

ATP2B4 (UniProt P23634)
inactive: [1] -0.103 | [2] 0.132 | [3] 0.074 | [4] 0.011 | entinostat -0.102 | vorinostat -0.079 | citarinostat 0.007 | silmitasertib 0.014 | [5] -0.197 | [6] -0.071

ATP2A3 isoform 2 (UniProt Q93084)
inactive: [1] -0.008 | [2] 0.007 | [3] -0.096 | [4] -0.072 | entinostat 0.035 | vorinostat -0.018 | citarinostat 0.019 | silmitasertib 0.068 | [5] -0.069 | [6] -0.05

ARRB2 isoform 4 (UniProt P32121)
inactive: [1] 0.052 | [2] -0.034 | [3] -0.062 | [4] -0.052 | entinostat 0.028 | vorinostat -0.008 | citarinostat 0.041 | silmitasertib -0.05 | [5] -0.037 | [6] 0.018

ARMC1 (UniProt Q9NVT9)
inactive: [1] 0.017 | [2] -0.073 | [3] -0.144 | [4] -0.033 | entinostat 0.038 | vorinostat 0.055 | citarinostat 0.101 | silmitasertib 0.033 | [5] -0.062 | [6] 0.005

ARL6IP5 (UniProt O75915)
inactive: [1] -0.01 | [2] -0.016 | [3] 0.048 | [4] -0.042 | entinostat 0.019 | vorinostat -0.023 | citarinostat -0.003 | silmitasertib 0.054 | [5] 0.074 | [6] -0.041

ATP5F1B (UniProt P06576)
inactive: [1] 0.004 | [2] -0.007 | [3] 0.022 | [4] 0.003 | entinostat -0.018 | vorinostat -0.055 | citarinostat -0.028 | silmitasertib 0.005 | [5] -0.001 | [6] -0.02

ATP6V1C1 (UniProt P21283)
inactive: [1] -0.015 | [2] -0.135 | [3] -0.173 | [4] -0.09 | entinostat 0.062 | vorinostat 0.039 | citarinostat 0.008 | silmitasertib 0.03 | [5] 0.025 | [6] -0.103

ATP2B1 isoform 1 (UniProt P20020)
inactive: [1] -0.084 | [2] 0.058 | [3] 0.086 | [4] 0.02 | entinostat -0.052 | vorinostat -0.031 | citarinostat 0.021 | silmitasertib 0.008 | [5] -0.063 | [6] -0.013

ATE1 isoform 2 (UniProt O95260)
inactive: [1] -0.037 | [2] -0.088 | [3] -0.014 | [4] 0.018 | entinostat 0.017 | vorinostat 0.071 | citarinostat 0.093 | silmitasertib 0.017 | [5] -0.024 | [6] 0.029

ARL2 (UniProt P36404)
inactive: [1] -0.003 | [2] -0.031 | [3] -0.075 | [4] 0.028 | entinostat -0.014 | vorinostat 0.031 | citarinostat 0.054 | silmitasertib -0.017 | [5] -0.032 | [6] -0.03

ATP6V1E1 (UniProt P36543)
inactive: [1] -0.046 | [2] -0.105 | [3] -0.037 | [4] -0.072 | entinostat 0.033 | vorinostat -0.005 | citarinostat -0.011 | silmitasertib -0.015 | [5] -0.076 | [6] -0.069

ATG5 (UniProt Q9H1Y0)
inactive: [1] 0.004 | [2] -0.003 | [3] -0.046 | [4] -0.046 | entinostat 0.015 | vorinostat 0.066 | citarinostat 0.024 | silmitasertib -0.006 | [5] -0.002 | [6] -0.054

ASL (UniProt P04424)
inactive: [1] 0.011 | [2] -0.004 | [3] -0.043 | [4] 0.006 | entinostat -0.027 | vorinostat 0.026 | citarinostat -0.009 | silmitasertib -0.024 | [5] -0.009 | [6] 0.007

ARPC2 (UniProt O15144)
inactive: [1] -0.01 | [2] 0.013 | [3] -0.048 | [4] -0.002 | entinostat -0.031 | vorinostat -0.032 | citarinostat 0.028 | silmitasertib 0.061 | [5] -0.042 | [6] -0.011

ARL1 (UniProt P40616)
inactive: [1] 0.142 | [2] 0.055 | [3] -0.173 | [4] -0.019 | entinostat 0.031 | vorinostat 0.149 | citarinostat 0.161 | silmitasertib 0.006 | [5] 0.04 | [6] 0.007

ATP1A3 isoform 3 (UniProt P13637)
inactive: [1] -0.049 | [2] 0.106 | [3] 0.052 | [4] 0.003 | entinostat -0.039 | vorinostat -0.032 | citarinostat 0.011 | silmitasertib 0.002 | [5] 0.012 | [6] -0.04

ASPSCR1 isoform 2 (UniProt Q9BZE9)
inactive: [1] -0.052 | [2] -0.046 | [3] -0.054 | [4] -0.006 | entinostat -0.034 | vorinostat -0.001 | citarinostat -0.006 | silmitasertib 0.103 | [5] -0.083 | [6] -0.013

ARL13B (UniProt Q3SXY8)
inactive: [1] -0.186 | [2] 0.046 | [3] -0.068 | [4] -0.049 | entinostat 0.015 | vorinostat -0.028 | citarinostat -0.033 | silmitasertib 0.139 | [5] -0.127 | [6] -0.102

ATP6V1B2 (UniProt P21281)
inactive: [1] 0.001 | [2] -0.011 | [3] -0.084 | [4] 0.015 | entinostat -0.003 | vorinostat -0.026 | citarinostat -0.021 | silmitasertib -0.003 | [5] -0.058 | [6] -0.04

ARRDC1 (UniProt Q8N5I2)
inactive: [1] 0.013 | [3] -0.06 | [4] 0.057 | entinostat 0.075 | vorinostat -0.086 | citarinostat 0.056 | silmitasertib 0.075 | [5] -0.008 | [6] -0.001

ARL4A (UniProt P40617)
inactive: [2] -0.276 | [3] -0.117 | silmitasertib 0.068

ASXL1 (UniProt Q8IXJ9)
inactive: [1] -0.031 | [3] 0.088 | entinostat -0.072 | citarinostat -0.029 | silmitasertib 0.006 | [5] 0.039 | [6] -0.316

Source: the supplement of paper PMC10849652
